The target of the assay is T1, CD146 of mouse whole kidney tissue lysate (mouse (endogenous in mouse kidney)) (UniProt Q8R2Y2).
T1 sequence: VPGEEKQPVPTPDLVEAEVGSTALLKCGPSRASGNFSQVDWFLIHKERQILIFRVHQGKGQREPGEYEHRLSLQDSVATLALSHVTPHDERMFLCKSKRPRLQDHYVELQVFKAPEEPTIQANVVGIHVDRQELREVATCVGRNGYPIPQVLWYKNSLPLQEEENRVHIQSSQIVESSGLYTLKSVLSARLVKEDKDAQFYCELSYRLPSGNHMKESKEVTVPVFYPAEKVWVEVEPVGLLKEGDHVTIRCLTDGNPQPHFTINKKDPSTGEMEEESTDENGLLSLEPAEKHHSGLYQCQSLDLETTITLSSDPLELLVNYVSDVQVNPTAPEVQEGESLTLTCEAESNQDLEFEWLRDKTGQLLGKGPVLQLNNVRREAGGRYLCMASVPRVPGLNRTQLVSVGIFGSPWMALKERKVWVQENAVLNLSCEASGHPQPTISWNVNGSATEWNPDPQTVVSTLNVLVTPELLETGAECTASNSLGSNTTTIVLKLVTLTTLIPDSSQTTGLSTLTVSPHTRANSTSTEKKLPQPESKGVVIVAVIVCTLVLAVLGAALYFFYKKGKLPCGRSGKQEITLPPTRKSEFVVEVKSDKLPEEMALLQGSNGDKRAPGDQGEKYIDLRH
Nature of the assay: co-IP; combination of whole kidney tissue lysate and plasma from WT mice or CD146-/- mice; immunoprecipitation of Gal3 or of CD146, blots for Gal3 and CD146.

Sequences of proteins named here, by UniProt entry; tags and fusion partners are left off.
UniProt P16110: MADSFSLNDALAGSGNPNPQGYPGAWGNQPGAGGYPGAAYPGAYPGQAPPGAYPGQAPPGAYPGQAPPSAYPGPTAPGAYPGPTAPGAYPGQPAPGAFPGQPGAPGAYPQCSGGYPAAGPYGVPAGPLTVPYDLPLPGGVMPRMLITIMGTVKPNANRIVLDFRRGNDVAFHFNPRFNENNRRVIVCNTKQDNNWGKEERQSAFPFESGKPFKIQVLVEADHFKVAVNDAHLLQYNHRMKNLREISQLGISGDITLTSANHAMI

No constants are given. Whether binding was seen depends on the method and setting. Binding seen in cells or lysates may run through a third protein. Some results given as binding are weak or reduced against the parent protein; the word gives no strength.

Take “Galectin-3 of mouse plasma (from UniProt P16110 1-264)”: the binding result is reported as “binds”.
